Where two headings read alike, the source gives them in different places. Some of these results come from one statement about several compounds together. At least one structure is not confirmed: it was looked up by name or label, or the drawing left a doubt.
Tested on: PPARα, PPARγ and PPARδ
Experiment: PPAR activity assays: biochemical assay of Example 9 or cell based assay of Example 10, at least one of the PPARs
[1] = read-out: EC50 in at least one of PPARα, PPARγ and PPARδ activity assays, either biochemical assay of Example 9 or cell based assay of Example 10, at least one of the PPARs

Q: With COc1ccc2c(c1)c(CCC(=O)O)cn2S(=O)(=O)c1ccc(Oc2cc(Cl)cc(Cl)c2)cc1 [Compound P-0050, 3-{1-[4-(3,5-Dichloro-phenoxy)-benzenesulfonyl]-5-methoxy-1H-indol-3-yl}-propionic acid] as the molecule, how does the EC50 [1] read?
A: The EC50 was at most 1 µM.

Q: For CCCCOc1ccc(S(=O)(=O)n2cc(CCC(=O)O)c3ccc(OC(C)C)cc32)cc1 [Compound P-0209, 3-[1-(4-Butoxy-benzenesulfonyl)-6-isopropoxy-1H-indol-3-yl]-propionic acid], which EC50 [1] is on record?
A: The EC50 was at most 1 µM.

Q: With CCOc1ccc2c(c1)c(CCC(=O)O)cn2S(=O)(=O)c1ccc(-c2ccnc(SC)n2)s1 [Compound P-0053, 3-{5-Ethoxy-1-[5-(2-methylsulfanyl-pyrimidin-4-yl)-thiophene-2-sulfonyl]-1H-indol-3-yl}-propionic acid] as the molecule, how does the EC50 [1] read?
A: Its EC50 is at most 1 µM.

Q: For CC(C)Oc1ccc2c(c1)c(CCC(=O)O)cn2S(=O)(=O)c1ccc(Oc2ccc(C(F)(F)F)cc2)cc1 [Compound P-0319, 3-{5-Isopropoxy-1-[4-(4-trifluoromethyl-phenoxy)-benzenesulfonyl]-1H-indol-3-yl}-propionic acid], which EC50 [1] is on record?
A: The EC50 was at most 1 µM.

Q: With CCOc1ccc2c(c1)c(CCC(=O)O)cn2S(=O)(=O)c1ccc(C(C)=O)cc1 [Compound P-0341, 3-[1-(4-Acetyl-benzenesulfonyl)-5-ethoxy-1H-indol-3-yl]-propionic acid] as the molecule, how does the EC50 [1] read?
A: Its EC50 is at most 1 µM.

Q: O=C(O)CCc1cn(S(=O)(=O)c2ccc(-c3cc(Cl)cc(Cl)c3)s2)c2ccc(Cl)cc12 [Compound P-0420, 3-{5-Chloro-1-[5-(3,5-dichloro-phenyl)-thiophene-2-sulfonyl]-1H-indol-3-yl}-propionic acid] was tested. Which EC50 [1] did it give?
A: The EC50 was at most 1 µM.

Q: With COc1ccc2c(c1)c(CCC(=O)O)cn2S(=O)(=O)c1ccc(Oc2ccc(C(F)(F)F)cc2)cc1 [Compound P-0051, 3-{5-Methoxy-1-[4-(4-trifluoromethyl-phenoxy)-benzenesulfonyl]-1H-indol-3-yl}-propionic acid] as the molecule, how does the EC50 [1] read?
A: The EC50 was at most 1 µM.

Q: With O=C(O)CCc1cn(S(=O)(=O)c2ccc(-c3cn[nH]c3)s2)c2ccc(Cl)cc12 [Compound P-0452, 3-{5-Chloro-1-[5-(1H-pyrazol-4-yl)-thiophene-2-sulfonyl]-1H-indol-3-yl}-propionic acid] as the molecule, how does the EC50 [1] read?
A: Its EC50 is at most 1 µM.

Q: How did the EC50 [1] turn out when CCCCc1ccc(S(=O)(=O)n2cc(CCC(=O)O)c3cc(OC(C)C)ccc32)cc1 [Compound P-0328, 3-[1-(4-Butyl-benzenesulfonyl)-5-isopropoxy-1H-indol-3-yl]-propionic acid] was run?
A: The EC50 was at most 1 µM.

Q: For CSc1nccc(-c2ccc(S(=O)(=O)n3cc(CCC(=O)O)c4cc(OC(C)C)ccc43)s2)n1 [Compound P-0311, 3-{5-Isopropoxy-1-[5-(2-methylsulfanyl-pyrimidin-4-yl)-thiophene-2-sulfonyl]-1H-indol-3-yl}-propionic acid], which EC50 [1] is on record?
A: Its EC50 is at most 1 µM.

Q: With O=C(O)CCc1cn(S(=O)(=O)c2ccc(Oc3ccc(Cl)c(Cl)c3)cc2)c2ccc(-c3cccnc3)cc12 [Compound P-0099, 3-{1-[4-(3,4-Dichloro-phenoxy)-benzenesulfonyl]-5-pyridin-3-yl-1H-indol-3-yl}-propionic acid] as the molecule, how does the EC50 [1] read?
A: The EC50 was at most 1 µM.

Q: For O=C(O)CCc1cn(S(=O)(=O)c2ccc(-c3ccc(OCc4ccccc4)nc3)s2)c2ccc(F)cc12 [Compound P-0473, 3-{1-[5-(6-Benzyloxy-pyridin-3-yl)-thiophene-2-sulfonyl]-5-fluoro-1H-indol-3-yl}-propionic acid], which EC50 [1] is on record?
A: The EC50 was at most 1 µM.

Q: Which EC50 [1] does the source give for CC(C)Oc1ccc2c(c1)c(CCC(=O)O)cn2S(=O)(=O)c1ccc(Oc2ccccn2)cc1 [Compound P-0316, 3-{5-Isopropoxy-1-[4-(pyridin-2-yloxy)-benzenesulfonyl]-1H-indol-3-yl}-propionic acid] here?
A: Its EC50 is at most 1 µM.

Q: With CCOc1ccc2c(c1)c(CCC(=O)O)cn2S(=O)(=O)c1ccc(-c2ccc(Cl)cc2)s1 [Compound P-0400, 3-{1-[5-(4-Chloro-phenyl)-thiophene-2-sulfonyl]-5-ethoxy-1H-indol-3-yl}-propionic acid] as the molecule, how does the EC50 [1] read?
A: Its EC50 is at most 1 µM.

Q: Which EC50 [1] does the source give for CCOc1ccc2c(c1)c(CCC(=O)O)cn2S(=O)(=O)c1ccc(-c2ccc(OC)c(OC)c2)s1 [Compound P-0427, 3-{1-[5-(3,4-Dimethoxy-phenyl)-thiophene-2-sulfonyl]-5-ethoxy-1H-indol-3-yl}-propionic acid] here?
A: Its EC50 is at most 1 µM.

Q: With Oc1ccc2cc[nH]c2c1 [Compound 22, 6-hydroxyindole] as the molecule, how does the EC50 (read-out: EC50 for at least one of PPARs, compounds disclosed in PCT publication WO 2005/009958 (numbering of that application)) read?
A: The EC50 was at most 1 µM.

Q: How did the EC50 [1] turn out when CC(=O)c1ccc(S(=O)(=O)n2cc(CCC(=O)O)c3cc(OC(C)C)ccc32)cc1 [Compound P-0315, 3-[1-(4-Acetyl-benzenesulfonyl)-5-isopropoxy-1H-indol-3-yl]-propionic acid] was run?
A: The EC50 was at most 1 µM.

Q: CCOc1ccc2c(CCC(=O)O)cn(S(=O)(=O)c3ccc(Oc4ccc(C(F)(F)F)cc4)cc3)c2c1 [Compound P-0174, 3-{6-Ethoxy-1-[4-(4-trifluoromethyl-phenoxy)-benzenesulfonyl]-1H-indol-3-yl}-propionic acid] was tested. Which EC50 [1] did it give?
A: The EC50 was at most 1 µM.

Q: How did the EC50 [1] turn out when COc1ccc2c(c1)c(CCC(=O)O)cn2S(=O)(=O)c1ccc(-c2c(C)noc2C)s1 [Compound P-0504, 3-{1-[5-(3,5-Dimethyl-isoxazol-4-yl)-thiophene-2-sulfonyl]-5-methoxy-1H-indol-3-yl}-propionic acid] was run?
A: The EC50 was at most 1 µM.

Q: CCOc1ccc(-c2ccc(S(=O)(=O)n3cc(CCC(=O)O)c4cc(Cl)ccc43)s2)cc1 [Compound P-0475, 3-{5-Chloro-1-[5-(4-ethoxy-phenyl)-thiophene-2-sulfonyl]-1H-indol-3-yl}-propionic acid] was tested. Which EC50 [1] did it give?
A: The EC50 was at most 1 µM.

Q: Which EC50 [1] does the source give for O=C(O)CCc1cn(S(=O)(=O)c2ccc(-c3cccnc3)s2)c2ccc(Cl)cc12 [Compound P-0413, 3-[5-Chloro-1-(5-pyridin-3-yl-thiophene-2-sulfonyl)-1H-indol-3-yl]-propionic acid] here?
A: The EC50 was at most 1 µM.

Q: With O=C(O)CCc1cn(S(=O)(=O)c2ccc(Oc3ccc(C(F)(F)F)cc3)cc2)c2cc3c(cc12)OCO3 [Compound P-0225, 3-{5-[4-(4-Trifluoromethyl-phenoxy)-benzenesulfonyl]-5H-[1,3]dioxolo[4,5-f]indol-7-yl}-propionic acid] as the molecule, how does the EC50 [1] read?
A: Its EC50 is at most 1 µM.

Q: How did the EC50 [1] turn out when CCOc1ccc2c(c1)c(CCC(=O)O)cn2S(=O)(=O)c1ccccc1-c1ccc(N)cc1 [Compound P-0539, 3-[1-(4′-Amino-biphenyl-2-sulfonyl)-5-ethoxy-1H-indol-3-yl]-propionic acid] was run?
A: Its EC50 is at most 1 µM.

Q: Which EC50 [1] does the source give for CC(C)Oc1ccc2c(c1)c(CCC(=O)O)cn2S(=O)(=O)c1ccc2c(c1)OCCO2 [Compound P-0340, 3-[1-(2,3-Dihydro-benzo[1,4]dioxine-6-sulfonyl)-5-isopropoxy-1H-indol-3-yl]-propionic acid] here?
A: Its EC50 is at most 1 µM.

Q: For CC(C)Oc1ccc2c(CCC(=O)O)cn(S(=O)(=O)c3cccc(Oc4ccc(Cl)c(Cl)c4)c3)c2c1 [Compound P-0236, 3-{1-[3-(3,4-Dichloro-phenoxy)-benzenesulfonyl]-6-isopropoxy-1H-indol-3-yl}-propionic acid], which EC50 [1] is on record?
A: The EC50 was at most 1 µM.

Q: Which EC50 [1] does the source give for CCCn1cc(-c2ccc(S(=O)(=O)n3cc(CCC(=O)O)c4cc(OCC)ccc43)s2)cn1 [Compound P-0520, 3-{5-Ethoxy-1-[5-(1-propyl-1H-pyrazol-4-yl)-thiophene-2-sulfonyl]-1H-indol-3-yl}-propionic acid] here?
A: The EC50 was at most 1 µM.

Q: COc1ccc2c(c1)c(CCC(=O)O)cn2S(=O)(=O)c1ccc(-c2cccc(OC(F)(F)F)c2)s1 [Compound P-0018, 3-{5-Methoxy-1-[5-(3-trifluoromethoxy-phenyl)-thiophene-2-sulfonyl]-1 H-indol-3-yl}-propionic acid] was tested. Which EC50 [1] did it give?
A: Its EC50 is at most 1 µM.

Q: For COc1ccc2c(c1)c(CCC(=O)O)cn2S(=O)(=O)c1cccc(Oc2ccc(Cl)c(Cl)c2)c1 [Compound P-0071, 3-{1-[3-(3,4-Dichloro-phenoxy)-benzenesulfonyl]-5-methoxy-1H-indol-3-yl}-propionic acid], which EC50 [1] is on record?
A: Its EC50 is at most 1 µM.

Q: Which EC50 [1] does the source give for Cc1nn(C)c(C)c1S(=O)(=O)n1cc(CCC(=O)O)c2cc3c(cc21)OCO3 [Compound P-0293, 3-[5-(1,3,5-Trimethyl-1H-pyrazole-4-sulfonyl)-5H-[1,3]dioxolo[4,5-f]indol-7-yl]-propionic acid] here?
A: The EC50 was at most 1 µM.

Q: CCOC(=O)CCc1cn(Cc2sc(-c3ccc(C(F)(F)F)cc3)nc2C)c2ccc(OC)cc12 [Compound P-0046, 3-{5-Methoxy-1-[4-methyl-2-(4-trifluoromethyl-phenyl)-thiazol-5-ylmethyl]-1H-indol-3-yl}-propionic acid ethyl ester] was tested. Which EC50 [1] did it give?
A: The EC50 was at most 1 µM.

Q: How did the EC50 [1] turn out when CCOc1ccc2c(c1)c(CCC(=O)O)cn2S(=O)(=O)c1ccc(-c2cnc(OC)nc2OC)s1 [Compound P-0467, 3-{1-[5-(2,4-Dimethoxy-pyrimidin-5-yl)-thiophene-2-sulfonyl]-5-ethoxy-1H-indol-3-yl}-propionic acid] was run?
A: Its EC50 is at most 1 µM.

Q: How did the EC50 [1] turn out when COc1ccc2c(c1)c(CCC(=O)O)cn2S(=O)(=O)c1cccc(C(=O)c2ccncc2)c1 [Compound P-0151, 3-{5-Methoxy-1-[3-(pyridine-4-carbonyl)-benzenesulfonyl]-1H-indol-3-yl}-propionic acid] was run?
A: Its EC50 is at most 1 µM.

Q: Which EC50 [1] does the source give for COc1ccc2c(c1)c(CCC(=O)O)cn2S(=O)(=O)CCc1ccc(C(F)(F)F)cc1 [Compound P-0026, 3-{5-methoxy-1-[(E)-2-(4-trifluoromethyl-phenyl)-ethanesulfonyl]-1H-indol-3-yl}-propionic acid] here?
A: Its EC50 is at most 1 µM.

Q: For CCOc1ccc2c(c1)c(CCC(=O)O)cn2S(=O)(=O)c1ccc(Br)cc1 [Compound P-0165, 3-[1-(4-Bromo-benzenesulfonyl)-5-ethoxy-1H-indole-3-yl]-prropionic acid], which EC50 [1] is on record?
A: The EC50 was at most 1 µM.

Q: For CCOc1ccc2c(c1)c(CCC(=O)O)cn2S(=O)(=O)c1ccccc1Cl [Compound P-0378, 3-[1-(2-Chloro-benzenesulfonyl)-5-ethoxy-1H-indol-3-yl]-propionic acid], which EC50 [1] is on record?
A: The EC50 was at most 1 µM.

Q: How did the EC50 [1] turn out when CCCCOc1ccc(S(=O)(=O)n2cc(/C=C/C(=O)O)c3cc(OCC)ccc32)cc1 [Compound P-0022, (E)-3-[1-(4-Butoxy-benzenesulgonyl)-5-ethoxy-1H-indol-3-yl]-acrylic acid] was run?
A: The EC50 was at most 1 µM.

Reference: US20070072904A1, “PPAR active compounds” (priority 2005, published 2007)
